{
  "sequences": {"note": "By UniProt entry, the sequences of proteins in these tests, tags left out.", "UniProt P35462, whole entry, looked up": "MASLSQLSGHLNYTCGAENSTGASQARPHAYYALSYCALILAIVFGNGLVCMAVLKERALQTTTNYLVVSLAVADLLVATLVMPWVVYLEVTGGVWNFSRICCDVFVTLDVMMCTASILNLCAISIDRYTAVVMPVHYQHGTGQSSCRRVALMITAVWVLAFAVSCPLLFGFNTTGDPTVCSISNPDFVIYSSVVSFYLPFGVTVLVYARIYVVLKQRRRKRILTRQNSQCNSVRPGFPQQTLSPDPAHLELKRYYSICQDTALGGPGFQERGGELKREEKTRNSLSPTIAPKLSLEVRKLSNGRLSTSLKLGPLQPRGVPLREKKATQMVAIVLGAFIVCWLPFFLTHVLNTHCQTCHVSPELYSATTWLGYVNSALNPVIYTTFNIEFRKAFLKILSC"},
  "source": "PubChem BioAssay AID652054",
  "about": "(National Center for Advancing Translational Sciences (NCATS), 2013)",
  "note": "In all, about 360,000 compounds went through this assay and about 9,100 (2.5%) were called active. This list was built around the results that the source calls inconclusive (neither active nor inactive); the mix of calls is not that of the screen. Cut-off read from the data, not from the text of the source: active = max response below about -50%; inconclusive = no clear call, values can overlap the other calls; inactive = above that. % is set by controls: 0 for no effect and ±100 for the full control effect.",
  "data": [
    {"target": "D(3) dopamine receptor (Homo sapiens) (UniProt P35462)", "experiment": "qHTS of D3 Dopamine Receptor Antagonist: qHTS", "conditions": "D3R cells, DiscoveRx beta-arrestin luminescence, antagonist mode; hits give low values", "summary_of_the_method": "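Cells plated overnight at 1500 cells/well, then exposed to library compounds with dopamine controls for 90 minutes at 37 degrees C. DiscoveRx reagent added for 30–60 minutes at room temperature; luminescence read, quantitative HTS format.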", "values": [
      {"smiles": "CC(C)C[C@H](NC(=O)c1[nH]cnc1C(=O)N[C@@H](Cc1ccccc1)C(=O)OC(C)(C)C)C(=O)OC(C)(C)C", "max response, negative = inhibition": "inconclusive: -44.7%"},
      {"smiles": "CCNC(=O)C1(C)CCCN1C(=O)c1cnc2ccccc2n1", "note": "(configuration not stated)", "max response, negative = inhibition": "active: -57.9%"},
      {"smiles": "C=CCN(c1ccccc1OC)S(=O)(=O)c1cccc(C(=O)NCC(c2ccc(OC)cc2)N2CCCC2)c1", "note": "(configuration not stated)", "max response, negative = inhibition": "inconclusive: -40.3%"},
      {"smiles": "COc1ccc(NC(=O)c2cccc(Cn3cc(Br)c([N+](=O)[O-])n3)c2)c(C)c1", "max response, negative = inhibition": "inactive: 14.6%"},
      {"smiles": "O=C(CCn1nnc2ccccc21)N1CCC(O)(c2cccc(F)c2)CC1", "max response, negative = inhibition": "inconclusive: -41.2%"},
      {"smiles": "COc1ccc(SCC(=O)Nc2ccc(N3CCN(C)CC3)c(F)c2)cc1", "max response, negative = inhibition": "active: -56.1%"},
      {"smiles": "Cc1ccc(NC2=C(N3CCCCC3)C(=O)c3ccccc3C2=O)cc1", "max response, negative = inhibition": "active: -62.6%"},
      {"smiles": "Fc1ccc(C2=CC(c3ccco3)n3ncnc3N2)cc1", "note": "(configuration not stated)", "max response, negative = inhibition": "inactive: 2.77%"},
      {"smiles": "Cc1c(NS(C)(=O)=O)cccc1-c1nc2cccnc2s1", "max response, negative = inhibition": "active: -50.7%"},
      {"smiles": "COc1cc(-c2noc(C)c2C(=O)NCCCN2CCCC2=O)cc(OC)c1OC", "max response, negative = inhibition": "inconclusive: -41.3%"},
      {"smiles": "CO[C@@H]1CN(C)C(=O)c2cc(NC(=O)NC3CCCCC3)ccc2OC[C@@H](C)N(CCc2ccccc2)C[C@@H]1C", "max response, negative = inhibition": "inconclusive: -32.8%"},
      {"smiles": "Cc1cccc(OCCNc2cc(N3CCN(CCO)CC3)ccc2[N+](=O)[O-])c1", "max response, negative = inhibition": "active: -57.7%"},
      {"smiles": "Nc1ccc2ccccc2c1C(=O)c1ccccc1", "max response, negative = inhibition": "inconclusive: -41.6%"},
      {"smiles": "OC1CCCN(Cc2ccc3c(c2)Cc2ccccc2-3)C1", "note": "(configuration not stated)", "max response, negative = inhibition": "inconclusive: -40.9%"},
      {"smiles": "O=C(/C=C/c1cccc([N+](=O)[O-])c1)NC(=S)Nc1ccc(CN2CCOCC2)cc1", "max response, negative = inhibition": "active: -58.4%"},
      {"smiles": "N#Cc1c(N)nc(SCC(=O)OCc2ccccc2)c(C#N)c1-c1ccco1", "max response, negative = inhibition": "inactive: -11.4%"},
      {"smiles": "CSCCC(NC(=O)c1ccc(Cl)c([N+](=O)[O-])c1)C(=O)N1CCN(C/C=C/c2ccccc2)CC1", "note": "(configuration not stated)", "max response, negative = inhibition": "inactive: -29.6%"},
      {"smiles": "CCc1cc(C(=O)NNC(=S)NCC2CCCO2)cs1", "note": "(configuration not stated)", "max response, negative = inhibition": "active: -53.5%"},
      {"smiles": "COc1ccc(-c2cc(C(=O)N3CCC3)c3ccccc3n2)cc1OC", "max response, negative = inhibition": "inactive: 20.6%"},
      {"smiles": "CCOc1cc2c3c(c1)C1(C(=O)N3C(C)(C)CC2C)C(C#N)=C(N)N2C(=C1C#N)Nc1ccccc12", "note": "(configuration not stated)", "max response, negative = inhibition": "inconclusive: -38.6%"},
      {"smiles": "C[C@@]12C(=O)N(c3cccc(Cl)c3)C(=O)N1[C@H](c1ccc(Cl)cc1)[C@@H]1C(=O)N(C3CCCCC3)C(=O)[C@@H]12", "max response, negative = inhibition": "inconclusive: -37.3%"},
      {"smiles": "CC/C(=N\\NC(=S)Nc1cccc(C)c1)c1ccccc1", "max response, negative = inhibition": "inconclusive: -44%"}
    ]}
  ]
}
